Reference: PubChem BioAssay AID652259 (Drosophila RNAi Screening Center, 2013)
The deposit covers about 22,000 reagents; this is a random part of those with a known target gene and a result. Over the whole deposit, 233 (1.1%) are marked active. 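Light values are raw, unnormalised plate reads; the ratio scores behind the reporter calls were not deposited.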 A number with no mark means an inactive call. The numbers tell different reagents against one gene apart. A plus sign joins genes that one reagent is predicted to hit. The record does not give: the amount of reagent, the time to read-out, the dose of the treatment.

Screen: 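Identify new Wingless signalling regulators in fly cells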 (primary screen)
Cells: Drosophila clone 8 imaginal disc epithelial cells
Reagents: long dsRNA against Drosophila genes
Treatment: pathway stimulated by co-transfected Wingless expression plasmid
Read-out: 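Firefly luciferase from a tcf-site Wingless reporter, measured alongside co-transfected Renilla luciferase that tracks transfection; pathway stimulated by a Wingless plasmid; the firefly-to-Renilla ratio is not deposited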
Direction: firefly reporter light: higher = more Wg reporter light, before normalisation; Renilla control light: higher = more transfected or surviving cells
Hit rule: 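Strong candidates differ from their plate mean by at least two out of four per-plate statistical tests; weak candidates meet just one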
Calls: active = candidate regulator (raises or lowers reporter); inactive = not a candidate

{"Target gene": "scat", "dsRNA no.": 1, "firefly reporter light, replicate 1": 8112, "Renilla control light, replicate 1": 2480}
{"Target gene": "CG2924", "dsRNA no.": 1, "firefly reporter light, replicate 1": 3353, "firefly reporter light, replicate 2": 10832, "Renilla control light, replicate 1": 1197, "Renilla control light, replicate 2": 2950}
{"Target gene": "Rcd7", "dsRNA no.": 1, "firefly reporter light, replicate 1": 13168, "Renilla control light, replicate 1": 5082}
{"Target gene": "CAH3", "dsRNA no.": 1, "firefly reporter light, replicate 1": 17608, "Renilla control light, replicate 1": 9307}
{"Target gene": "CG9624", "dsRNA no.": 1, "firefly reporter light, replicate 1": 11611, "Renilla control light, replicate 1": 1946}
{"Target gene": "lncRNA:CR32657", "dsRNA no.": 1, "firefly reporter light, replicate 1": 15613, "Renilla control light, replicate 1": 8937}
{"Target gene": "Ir84a", "dsRNA no.": 1, "firefly reporter light, replicate 1": 7434, "Renilla control light, replicate 1": 2792}
{"Target gene": "CG12158", "dsRNA no.": 1, "firefly reporter light, replicate 1": 7.30e5, "firefly reporter light, replicate 2": 7.50e5, "Renilla control light, replicate 1": 3.80e5, "Renilla control light, replicate 2": 97638}
{"Target gene": "nur", "dsRNA no.": 1, "firefly reporter light, replicate 1": 16688, "Renilla control light, replicate 1": 7910}
{"Target gene": "Obp51a", "dsRNA no.": 1, "firefly reporter light, replicate 1": 5.81e5, "firefly reporter light, replicate 2": 6.16e5, "Renilla control light, replicate 1": 1.90e5, "Renilla control light, replicate 2": 1.57e5}
{"Target gene": "TfIIFalpha", "dsRNA no.": 1, "firefly reporter light, replicate 1": 6777, "Renilla control light, replicate 1": 1780}
{"Target gene": "Ugt36A1 + CG15418", "dsRNA no.": 1, "firefly reporter light, replicate 1": 3133, "firefly reporter light, replicate 2": 8794, "Renilla control light, replicate 1": 1341, "Renilla control light, replicate 2": 3944}
{"Target gene": "l(2)k01209", "dsRNA no.": 1, "firefly reporter light, replicate 1": 5799, "Renilla control light, replicate 1": 2450}
{"Target gene": "bru3", "dsRNA no.": 1, "firefly reporter light, replicate 1": 4474, "Renilla control light, replicate 1": 2195}
{"Target gene": "bru3", "dsRNA no.": 2, "firefly reporter light, replicate 1": 3506, "Renilla control light, replicate 1": 443}
{"Target gene": "bru3", "dsRNA no.": 3, "firefly reporter light, replicate 1": 4748, "Renilla control light, replicate 1": 690}
{"Target gene": "bru3", "dsRNA no.": 4, "firefly reporter light, replicate 1": 7233, "Renilla control light, replicate 1": 2555}
{"Target gene": "bru3", "dsRNA no.": 5, "firefly reporter light, replicate 1": 4310, "Renilla control light, replicate 1": 1802}
{"Target gene": "bru3", "dsRNA no.": 6, "firefly reporter light, replicate 1": 5.36e5, "firefly reporter light, replicate 2": 5.65e5, "Renilla control light, replicate 1": 1.65e5, "Renilla control light, replicate 2": 1.65e5}
{"Target gene": "CheA84a", "dsRNA no.": 1, "firefly reporter light, replicate 1": 3801, "Renilla control light, replicate 1": 1659}
{"Target gene": "Gr39b", "dsRNA no.": 1, "firefly reporter light, replicate 1": 25895, "firefly reporter light, replicate 2": 8.65e5, "Renilla control light, replicate 1": 14290, "Renilla control light, replicate 2": 3.91e5}
{"Target gene": "CG34269", "dsRNA no.": 1, "firefly reporter light, replicate 1": 2458, "Renilla control light, replicate 1": 1288}
{"Target gene": "CG31029", "dsRNA no.": 1, "firefly reporter light, replicate 1": 4760, "Renilla control light, replicate 1": 1920}
{"Target gene": "CG13008", "dsRNA no.": 1, "firefly reporter light, replicate 1": 20883, "Renilla control light, replicate 1": 8977}
{"Target gene": "CG13008", "dsRNA no.": 2, "firefly reporter light, replicate 1": 15216, "Renilla control light, replicate 1": 8102}

Laid out differently: results already given.
l(2)k01209
- firefly reporter light, replicate 1: 5799
- Renilla control light, replicate 1: 2450

bru3 #1
- firefly reporter light, replicate 1: 4474
- Renilla control light, replicate 1: 2195
